The record followed here is PubChem BioAssay AID1347423 (Functional Genomics Laboratory (NCATS/FGL), 2020).

About 210 (0.4%) of roughly 52,000 sequences were called active.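 The calls were made as follows: active = gene whose silencing raises cell survival under the drug, median off-target-corrected z-score across its silencing RNAs 2 or more; inactive = the rest.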 The list shows a part of the results.

This assay can be described thus: Resistance to Poly (ADP-Ribose) Polymerase inhibitor: Gene Identification via Genome-wide siRNA Screen. The following applies: mouse BRCA2 R2336H ES cells, olaparib, CellTiter-Glo viability; active compounds read high. The procedure, abridged: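 Genome-wide siRNA screen (3 siRNAs/gene, 20 nM) in mouse ES cells carrying hypomorphic BRCA2 R2336H; olaparib 500 nM added 48 h post-transfection, CellTiter-Glo viability 72 h later. Normalized to plate-median negative control; MAD z-scores, gene median, seed-adjusted.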
Background: In ATP-based viability assays light output follows the ATP content of the culture.
In the case of CGAAGUACGAGAAACACGUTT against AI316807, the z-score is inactive: -2.64.

For CCUGAAAACACGUAUUGAATT against Igfbp4, the z-score is inactive: -1.14.

For GGACGACUUCUACCUCAACTT against Fzr1, the z-score was inactive: -1.55.

As to “GCGAAUCUCCACAAGAUGGTT against 2300002M23Rik”, the z-score was inactive: -0.91.

Consider GGAAGGUACCUACUCACUATT against Gm2a, for which the z-score was inactive: -1.11.

GGUAACUUCUCUUCUGAGATT against H2-Oa: the z-score was inactive: 0.491.

Regarding “CCAUCUAGGUUAUUACAUGTT against 4930521A18Rik”, the z-score is inactive: 0.108.

With “GGCAUAGGACUAGAAGCAGTT against 1500011J06Rik”, the z-score was inactive: -1.65.

As to GCACAUGUAUCCAUGCUUCTT against Kcnj11, the z-score was inactive: 0.624.

For the sequence GGGAUGAGACACGAAACCUTT against Itga2b, the z-score was inactive: -0.424.

As for GCUGAGGGAUAUCUCAGCCTT against Edn2, the z-score was inactive: 0.0989.

Regarding GGACUAUGAAAUUGACUGUTT against Hdlbp, the z-score was inactive: -0.0015.

CGACCUAACCAACAUGCUUTT against Ddefl1: the z-score is inactive: 0.602.

With “GGACCCAUCGGAUAACUAUTT against 2310004N11Rik”, the z-score is inactive: -0.885.

Regarding CCAGCUAUUGGAAGUAAAATT against Nbn, the z-score is inactive: -1.57.

On to GGUUGUCAUUCUUAUCCUUTT against Mageb1, for which the z-score is inactive: 0.666.

As for GCUGGGCAUUACCCAUGUUTT against Dusp13, the z-score is inactive: -0.443.

On to GGAAGGUGGCUAUUUUAAUTT against Acsl3, for which the z-score is inactive: 0.94.

For the sequence CCUUCAAUCUUCCUAGUGATT against Bat3, the z-score was inactive: 0.779.

Regarding GGAGCUUCCACAACUCAUATT against Esd, the z-score is inactive: -0.0778.

Turning to “GGACCUUCUUUGAACAUAATT against 6430537H07Rik”, the z-score was inactive: -2.14.

As for GGUUAGCCUACUCUCUAAUTT against Tomm22, the z-score was inactive: -0.0167.

With “CCAUUGACUCCAGUGGGAATT against 2610205E22Rik”, the z-score is inactive: -1.79.

Consider GUCUUCUCUGCCUGUCUGATT against Sprrl1, for which the z-score is inactive: -0.316.

In the case of GCUAGAGGAGUUUCUAAACTT against Clu, the z-score was inactive: 1.23.

Regarding “GGAUGGUGGCAUUUUACAGTT against 2810407A14Rik”, the z-score was inactive: 1.42.

For the sequence GGCCUGCCAGAUAUGAAAATT against Ces2, the z-score was inactive: -0.881.

For the sequence “CCGAGUGAUGACCUACCGUTT against 1700019E19Rik”, the z-score was inactive: 2.41.

Take CCACUUCUUUCCAUGAACUTT against Slc6a4: the z-score is inactive: -0.00872.

Regarding GGAUGGUCUGCUAUUACAUTT against Phf7, the z-score is inactive: -1.14.

As to GGCAAGUUCCGAGAAGGGATT against Irf4, the z-score was inactive: -0.916.

For the sequence GGGAGAAGAGAUUCUGAUATT against Sh2d1a, the z-score is inactive: 0.179.

Regarding “CGAUGAACACACGUCUUAUTT against 2810047L02Rik”, the z-score is inactive: -1.33.

GGUAUUAUUUCUGAAUGCCTT against Mtrf1l: the z-score is inactive: 1.49.

As for GGAGUGGGAGAAGAUGGAATT against Mbd4, the z-score is inactive: -1.55.

On to GGAAACAGCUGCUAAGUGCTT against Dhrs8, for which the z-score was inactive: 0.0688.

With CGGCCUCUUCUGGUUGUUGTT against BC038286, the z-score is inactive: 0.616.

As to GCAUCAGCUCACCUUUGUATT against BC049354, the z-score was inactive: -0.629.

Turning to CCCUUAUCCCAAUAAUAAGTT against Spag5, the z-score was inactive: -0.6.

For GGUGGUACGCAAUCAAAAGTT against Wbscr17, the z-score was inactive: 0.874.

Take CCAAACCGAUAUAUAAAGUTT against Ddx51: the z-score was inactive: 0.172.

With GGCCACAAGUUUUCAGACGTT against Actl7b, the z-score is inactive: 0.834.

Regarding GGCACACAAACAAUUGGUATT against BC011248, the z-score is inactive: -0.386.

Turning to GGCCCAUAUCCACAUGAUGTT against Uxt, the z-score was inactive: -1.03.

For the sequence CCAUGACCUCACUGAAGUCTT against Slc26a6, the z-score was inactive: -0.85.

“CGCAUCUGUUUCUUUUCCCTT against 1700029P11Rik”: the z-score was inactive: -0.409.

For GAUAUCACAGAUCUGUUGUTT against Krtap13, the z-score is inactive: -0.0396.

“GGAUAUUCUGUUUUAUGUCTT against D130054N24Rik”: the z-score was inactive: -0.669.

On to GGUUUUAUGAUAAGGCUCATT against Olfr895, for which the z-score is inactive: 0.152.

On to GGUAUUUCAUGAACAUCACTT against Grin2d, for which the z-score was inactive: 1.84.

Regarding GGAAAUGGAAUCAAGACAGTT against Eif5, the z-score is inactive: -0.909.

On to GCUACUUGGAGUGGAUCUGTT against Klk15, for which the z-score was inactive: -2.77.

As to GGUGCAUUCAUUAUCUUAATT against Ikbkb, the z-score is inactive: 0.659.

In the case of GCGAACCAUUCCACUCUUUTT against Hpgd, the z-score is inactive: 0.597.

Turning to GGAACUAGUCUGGUGAACUTT against Apoa2, the z-score is inactive: 1.32.

Take CCUUAAUACAACUUGUCCCTT against BC026996: the z-score is inactive: 1.23.

For the sequence GGAUGUCAGGACAAAACCATT against Olfr1335, the z-score is inactive: 0.786.

As to CCUCAUGCAGUUAAAUAUGTT against Kera, the z-score was inactive: -0.257.

Regarding GGCAGAAACUAGCAGAAGATT against Gdf2, the z-score was inactive: -1.04.

As to “UGGGCCUUGUAGGCUUCAUTT against 4631403P03Rik”, the z-score is inactive: 0.712.

On to GGCCAUUGUUACUGGAAAATT against Elmo2, for which the z-score is inactive: -0.978.

GGCAGGCAACCAAUCAAAUTT against Npepps: the z-score was inactive: -0.666.

Take GCUCUGCUAACUUACAUCUTT against BC051083: the z-score is inactive: 0.361.

On to GGUAGAGGAGAUCUUCAAGTT against Entpd5, for which the z-score was inactive: 0.113.

In the case of CGUUGUCUAAAUUGUGAAATT against Kpna3, the z-score is inactive: 1.91.

Turning to GGGUCAGAUUUUCAAUGUCTT against Bmpr1b, the z-score was inactive: 0.643.

GGAUAACCUAUCGAAUCUCTT against Dsg4: the z-score was inactive: 2.02.

With CGGAUUACAAACCAUAAAATT against Rkhd3, the z-score is inactive: 0.102.

In the case of GGAACUGGAGUUUCUUAGCTT against Anp32e, the z-score was inactive: -0.378.

GGGAAGACGACUGUAAUUGTT against Mrps18a: the z-score is inactive: -0.385.

On to GCAAGAUUCAUUGUCACUGTT against Vil2, for which the z-score is inactive: 1.04.

For the sequence GCACACACAUCAGUAAAUUTT against Olfr1444, the z-score is inactive: -1.98.

On to CCAAACCAGCACAUUGAAGTT against Il12a, for which the z-score was inactive: -0.738.

For the sequence CCUCUUCCUGCUAAUCAUUTT against Olfr599, the z-score is inactive: -1.04.

For the sequence GGCCUACGCAUCUUCUACCTT against Mest, the z-score is inactive: 0.508.

GGAAAGAAGUGUCAGUUUUTT against Rfrp: the z-score was inactive: 0.526.

As to GGUCUUGGUGAGCAUGAGATT against Lnpep, the z-score is inactive: 0.579.

As to “GCGGUCACGUGUGAUGGAUTT against E430039K05Rik”, the z-score was inactive: 1.13.

Take GGAGGAACUGGAUUCUUACTT against Eps8l3: the z-score was inactive: -1.18.

As for GGUCCUAAAAUUUCCUCUUTT against Prdx3, the z-score was inactive: 0.153.

As for GGUCAAGAUGUCAUUAUGATT against Apeg1, the z-score was inactive: 0.873.

For GGAAAAUCACCUAUAAGAATT against Rabl2a, the z-score was inactive: 0.996.

For GGCCAUUUACAAGAUGGUUTT against Hpca, the z-score is inactive: -0.329.

Consider GGCUGAACAGCAAAAAAAATT against Foxn4, for which the z-score was inactive: 0.546.

Turning to GGAACAGCUGUGAUUAACGTT against Prdx4, the z-score is inactive: -0.153.

In the case of UGAAGUCUAAUCAGAGCACTT against Olfr50, the z-score was inactive: -2.01.

For the sequence CGUGCAGAUCAACGAUAUUTT against Rps5, the z-score is inactive: -3.15.

As to GGACAUUCUGCUACACAAGTT against Bsx, the z-score is inactive: -0.137.

CGGCUCUUCUUAAAAUUGATT against Rpl35a: the z-score was inactive: -3.28.

Regarding CGAGGACUACUAGAAGAAATT against Trpc1, the z-score is inactive: 0.53.

For GGUAUCACCAUAGAAUUGUTT against Zfp313, the z-score was inactive: 0.299.

As for GGUUAUUUCCCUGUUUUCATT against Olfr532, the z-score is inactive: 0.0798.

Regarding GGUUUGGUUACAAAAAUACTT against Mmp16, the z-score is inactive: -0.339.

As to GGACUAAUGUCUCCAACUATT against Rdh7, the z-score was inactive: -2.16.

For GUUACAGCUGCCUUUGUUUTT against Olfr893, the z-score is inactive: -3.25.

For the sequence GGUGUGUGACUCAGAUACUTT against Has2, the z-score is inactive: -0.28.

With “GGGCUUAAUUAUGUCUUUUTT against C130022P09Rik”, the z-score is inactive: -1.43.

GGAAAGAUUUAUUUUGACGTT against Vnn3: the z-score was inactive: -0.229.

In the case of GGGCAAGAGGAUUAUGACATT against Cdc42, the z-score is inactive: -1.87.

In the case of GCUACAUGAUGUUCAUACUTT against Srpx, the z-score is inactive: 0.806.

For GAGAUGAUGGAUGCCCAGCTT against Ndufb7, the z-score was inactive: -0.631.

In the case of GGAACGAUCGAAACAAGAATT against Rarg, the z-score is active: 3.59.

With “GCACUUCGCCCACUGUUUATT against 1700029B21Rik”, the z-score was inactive: 1.4.

Regarding GUACUCUUUUUCAUCUUCCTT against Olfr1010, the z-score is inactive: -1.35.

Take GGGUCAAUUGCCAAAACUCTT against Arhgdia: the z-score was inactive: 0.344.
